One molecule from patent publication US9643985B2, “PCL compounds, compositions, and methods of use thereof” (The Board Of Trustees Of The University Of Illinois, priority 2013, dated 2017) can be followed below.

Series [1] in a line: Limit of detection/quantification, luciferase bioluminescence, H2O2.
Series [2] can be described thus: Limit of detection/quantification, luciferase bioluminescence, peroxynitrite.

As for `O=C(O)[C@H]1CSC(c2nc3ccc(OCc4ccc(B(O)O)cc4)cc3s2)=N1` [PCL-1], the “L.O.Q. (limit of quantification)” value in series [1] was found to be 763 nM; in series [2] (peroxynitrite (SIN-1)) it was 157 nM; in series [2] (peroxynitrite (bolus)), 56 nM. Further, the “L.O.D. (limit of detection)” value turned out to be 231 nM in series [1] (bioluminescent output, 37° C., 30 minutes); 47 nM in series [2] (peroxynitrite (SIN-1)); 16 nM in series [2] (peroxynitrite (bolus), bioluminescent output, 37° C., 30 minutes).
